From paper PMC4426631, “Insect antimicrobial peptides show potentiating functional interactions against Gram-negative bacteria” (Proceedings of the Royal Society B: Biological Sciences, 2015)
These are yes or no findings as the source states them, for the method shown.

The chains behind the UniProt entries cited, without tags or fusion partners.
UniProt P0A6Y8: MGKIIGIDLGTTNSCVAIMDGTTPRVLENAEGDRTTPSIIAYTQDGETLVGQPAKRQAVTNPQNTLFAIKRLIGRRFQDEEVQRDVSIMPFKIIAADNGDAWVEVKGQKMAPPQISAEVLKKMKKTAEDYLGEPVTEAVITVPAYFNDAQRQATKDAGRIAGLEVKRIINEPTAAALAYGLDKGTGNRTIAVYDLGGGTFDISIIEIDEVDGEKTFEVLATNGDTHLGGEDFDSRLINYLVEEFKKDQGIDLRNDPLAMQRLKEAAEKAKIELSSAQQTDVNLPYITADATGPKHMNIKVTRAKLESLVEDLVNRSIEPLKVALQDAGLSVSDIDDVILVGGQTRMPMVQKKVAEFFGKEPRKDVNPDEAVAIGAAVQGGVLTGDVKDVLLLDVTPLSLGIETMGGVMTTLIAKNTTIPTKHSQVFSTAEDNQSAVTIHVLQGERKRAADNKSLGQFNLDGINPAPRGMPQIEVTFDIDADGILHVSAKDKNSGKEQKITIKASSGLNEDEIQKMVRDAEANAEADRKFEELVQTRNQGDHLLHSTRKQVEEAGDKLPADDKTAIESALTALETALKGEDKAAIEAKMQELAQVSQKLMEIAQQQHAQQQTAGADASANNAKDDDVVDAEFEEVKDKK

How the values were obtained:
[1] = biological target: T1, metalnikowin I from Palomena prasina, fluorescein-labelled (Palomena prasina) (UniProt P80408); assay: condition: DnaK–BHQ10 dilution series 0.8–13 000 nmol l^−1; FRET or BRET; FRET-based quenching assay in solution: fluorescein-modified peptide (50 μl, 1.3 nmol l^−1) mixed with a serial dilution of DnaK–BHQ10 (50 μl, 0.8–13 000 nmol l^−1, 1 : 4 dilution series) in modification buffer (20 mmol l^−1 Na2HPO4, 20 mmol l^−1 KH2PO4, 5 mmol l^−1 MgCl2, 150 mmol l^−1 KCl, pH 7.4), black 384-well plate, incubated 2 h; Kd by nonlinear regression; both purified
T1 sequence (peptide, fluorescein-modified): VDKPDYRPRPRPPNM

[2] = biological target: T2, metalnikowin IIA from Palomena prasina, fluorescein-labelled (Palomena prasina) (UniProt P80409); assay: as above
T2 sequence (peptide, fluorescein-modified): VDKPDYRPRPWPRPN

binding [1]: no binding | binding [2]: no binding
Substance: Escherichia coli chaperone DnaK labelled with BHQ10 (DnaK–BHQ10) (from UniProt P0A6Y8 1-638)
